Measured values published in the supplement of paper PMC10849652.
This is one part of the list.

By UniProt entry, the sequences of proteins in these tests, tags left out. Where a name states a change or a piece, a line headed by the entry shows the natural chain unless it says otherwise.
UniProt O75792: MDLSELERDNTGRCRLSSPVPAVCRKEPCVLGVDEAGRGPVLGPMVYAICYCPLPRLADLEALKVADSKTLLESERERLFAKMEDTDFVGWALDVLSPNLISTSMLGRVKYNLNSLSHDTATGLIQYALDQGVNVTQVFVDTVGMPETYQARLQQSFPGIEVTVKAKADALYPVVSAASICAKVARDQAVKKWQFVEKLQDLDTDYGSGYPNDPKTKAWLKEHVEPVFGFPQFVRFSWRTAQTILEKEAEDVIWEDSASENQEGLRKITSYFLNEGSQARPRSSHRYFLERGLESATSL
UniProt Q13546: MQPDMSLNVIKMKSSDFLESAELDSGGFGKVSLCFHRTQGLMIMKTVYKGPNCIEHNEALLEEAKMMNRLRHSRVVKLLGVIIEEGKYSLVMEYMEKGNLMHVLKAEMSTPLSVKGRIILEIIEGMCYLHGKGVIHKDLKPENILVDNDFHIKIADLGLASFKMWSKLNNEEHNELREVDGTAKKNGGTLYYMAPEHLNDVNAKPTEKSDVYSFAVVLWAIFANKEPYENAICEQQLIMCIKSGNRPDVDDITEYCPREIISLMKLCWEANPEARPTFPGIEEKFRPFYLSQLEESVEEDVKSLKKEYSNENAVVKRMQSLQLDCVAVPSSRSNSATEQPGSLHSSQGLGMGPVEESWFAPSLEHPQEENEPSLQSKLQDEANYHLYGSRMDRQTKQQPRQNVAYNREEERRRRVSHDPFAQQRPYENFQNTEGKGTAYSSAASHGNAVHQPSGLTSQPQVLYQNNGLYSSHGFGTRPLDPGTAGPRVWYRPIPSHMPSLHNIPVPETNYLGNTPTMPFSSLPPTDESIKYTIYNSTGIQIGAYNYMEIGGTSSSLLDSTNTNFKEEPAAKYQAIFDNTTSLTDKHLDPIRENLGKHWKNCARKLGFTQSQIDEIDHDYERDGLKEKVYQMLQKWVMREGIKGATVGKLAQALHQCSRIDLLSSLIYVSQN
UniProt Q96A37: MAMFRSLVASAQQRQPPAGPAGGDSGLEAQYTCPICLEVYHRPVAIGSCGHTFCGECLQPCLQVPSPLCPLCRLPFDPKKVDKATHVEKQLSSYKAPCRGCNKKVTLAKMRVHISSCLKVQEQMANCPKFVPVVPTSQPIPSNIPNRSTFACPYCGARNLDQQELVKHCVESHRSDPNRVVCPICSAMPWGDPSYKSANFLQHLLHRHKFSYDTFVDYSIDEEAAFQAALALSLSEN
UniProt Q9H4A4: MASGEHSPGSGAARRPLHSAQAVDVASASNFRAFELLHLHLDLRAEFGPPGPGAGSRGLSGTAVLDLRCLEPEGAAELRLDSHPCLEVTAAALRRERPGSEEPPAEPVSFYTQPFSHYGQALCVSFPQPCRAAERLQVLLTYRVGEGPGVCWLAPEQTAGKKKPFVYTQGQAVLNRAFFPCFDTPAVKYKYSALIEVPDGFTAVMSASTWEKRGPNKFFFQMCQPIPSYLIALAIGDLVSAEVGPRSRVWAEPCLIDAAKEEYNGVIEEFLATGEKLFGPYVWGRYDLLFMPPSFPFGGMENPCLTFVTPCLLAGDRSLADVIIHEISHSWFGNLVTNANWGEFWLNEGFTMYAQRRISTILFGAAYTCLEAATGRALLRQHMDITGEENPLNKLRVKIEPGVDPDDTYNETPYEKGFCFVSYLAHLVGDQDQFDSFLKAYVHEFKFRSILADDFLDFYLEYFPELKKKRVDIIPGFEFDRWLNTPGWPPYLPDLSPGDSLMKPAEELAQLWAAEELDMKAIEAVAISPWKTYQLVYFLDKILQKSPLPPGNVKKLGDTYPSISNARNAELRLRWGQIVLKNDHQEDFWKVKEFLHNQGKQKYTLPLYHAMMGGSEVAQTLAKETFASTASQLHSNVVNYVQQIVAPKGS
UniProt Q9BWH6: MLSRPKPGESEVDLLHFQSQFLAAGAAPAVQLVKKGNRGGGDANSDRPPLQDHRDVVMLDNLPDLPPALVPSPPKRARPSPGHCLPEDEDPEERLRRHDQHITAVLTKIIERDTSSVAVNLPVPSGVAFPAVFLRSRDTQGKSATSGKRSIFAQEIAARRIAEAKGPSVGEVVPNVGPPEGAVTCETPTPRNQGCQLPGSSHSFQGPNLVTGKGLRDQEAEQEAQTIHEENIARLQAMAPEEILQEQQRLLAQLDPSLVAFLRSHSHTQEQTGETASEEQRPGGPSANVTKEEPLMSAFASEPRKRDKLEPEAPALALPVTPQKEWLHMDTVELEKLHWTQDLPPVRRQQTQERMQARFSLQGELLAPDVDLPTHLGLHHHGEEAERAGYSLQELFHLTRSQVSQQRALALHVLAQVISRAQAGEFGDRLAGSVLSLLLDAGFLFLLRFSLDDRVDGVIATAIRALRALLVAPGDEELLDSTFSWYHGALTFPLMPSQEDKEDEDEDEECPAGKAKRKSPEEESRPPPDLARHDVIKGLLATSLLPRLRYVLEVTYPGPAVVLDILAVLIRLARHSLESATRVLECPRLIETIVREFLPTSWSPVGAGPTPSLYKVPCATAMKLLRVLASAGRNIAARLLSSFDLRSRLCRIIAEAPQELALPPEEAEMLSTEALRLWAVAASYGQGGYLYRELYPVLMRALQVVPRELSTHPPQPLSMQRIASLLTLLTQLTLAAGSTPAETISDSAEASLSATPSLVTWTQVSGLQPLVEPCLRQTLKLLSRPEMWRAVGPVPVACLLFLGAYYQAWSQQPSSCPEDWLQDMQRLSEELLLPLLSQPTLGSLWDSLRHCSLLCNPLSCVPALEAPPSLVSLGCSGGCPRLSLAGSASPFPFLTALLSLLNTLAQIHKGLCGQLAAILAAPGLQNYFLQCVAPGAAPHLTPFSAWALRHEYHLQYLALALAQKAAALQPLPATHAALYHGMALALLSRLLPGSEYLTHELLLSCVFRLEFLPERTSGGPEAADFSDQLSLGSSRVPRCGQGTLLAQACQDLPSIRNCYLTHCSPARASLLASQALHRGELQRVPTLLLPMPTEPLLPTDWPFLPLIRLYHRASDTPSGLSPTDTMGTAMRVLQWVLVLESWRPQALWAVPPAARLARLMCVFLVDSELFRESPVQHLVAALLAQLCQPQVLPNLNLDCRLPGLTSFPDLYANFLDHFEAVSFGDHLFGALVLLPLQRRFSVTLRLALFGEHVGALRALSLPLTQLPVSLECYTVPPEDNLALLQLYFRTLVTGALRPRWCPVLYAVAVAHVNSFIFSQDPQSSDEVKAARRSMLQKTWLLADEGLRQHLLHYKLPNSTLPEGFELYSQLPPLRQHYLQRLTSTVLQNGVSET
UniProt Q5VTR2, whole entry, looked up: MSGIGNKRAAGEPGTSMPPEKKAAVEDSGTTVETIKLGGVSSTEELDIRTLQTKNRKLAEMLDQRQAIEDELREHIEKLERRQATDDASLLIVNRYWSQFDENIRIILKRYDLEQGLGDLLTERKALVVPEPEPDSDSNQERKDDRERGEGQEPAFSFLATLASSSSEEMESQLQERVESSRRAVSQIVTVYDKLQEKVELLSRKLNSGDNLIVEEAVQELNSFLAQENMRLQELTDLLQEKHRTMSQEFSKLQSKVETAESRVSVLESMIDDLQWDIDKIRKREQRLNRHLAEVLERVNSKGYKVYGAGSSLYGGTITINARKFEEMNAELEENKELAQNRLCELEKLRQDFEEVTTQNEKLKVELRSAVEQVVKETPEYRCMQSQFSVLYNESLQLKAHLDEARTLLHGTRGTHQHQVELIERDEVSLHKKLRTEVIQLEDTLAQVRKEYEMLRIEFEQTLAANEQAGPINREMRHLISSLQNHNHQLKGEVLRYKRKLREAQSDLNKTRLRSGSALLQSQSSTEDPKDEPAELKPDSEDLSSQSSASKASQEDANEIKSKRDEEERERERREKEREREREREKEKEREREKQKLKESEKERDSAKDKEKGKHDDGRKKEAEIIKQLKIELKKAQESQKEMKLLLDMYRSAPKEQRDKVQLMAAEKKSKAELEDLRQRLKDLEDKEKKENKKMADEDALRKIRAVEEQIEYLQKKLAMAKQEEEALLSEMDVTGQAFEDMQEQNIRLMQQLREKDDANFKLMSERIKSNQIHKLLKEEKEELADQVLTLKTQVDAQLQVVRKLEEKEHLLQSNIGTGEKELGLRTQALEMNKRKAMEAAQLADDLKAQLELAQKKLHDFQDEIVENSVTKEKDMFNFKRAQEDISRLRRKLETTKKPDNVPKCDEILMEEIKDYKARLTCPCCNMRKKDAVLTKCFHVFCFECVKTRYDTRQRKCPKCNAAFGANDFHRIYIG
UniProt Q9UBS8: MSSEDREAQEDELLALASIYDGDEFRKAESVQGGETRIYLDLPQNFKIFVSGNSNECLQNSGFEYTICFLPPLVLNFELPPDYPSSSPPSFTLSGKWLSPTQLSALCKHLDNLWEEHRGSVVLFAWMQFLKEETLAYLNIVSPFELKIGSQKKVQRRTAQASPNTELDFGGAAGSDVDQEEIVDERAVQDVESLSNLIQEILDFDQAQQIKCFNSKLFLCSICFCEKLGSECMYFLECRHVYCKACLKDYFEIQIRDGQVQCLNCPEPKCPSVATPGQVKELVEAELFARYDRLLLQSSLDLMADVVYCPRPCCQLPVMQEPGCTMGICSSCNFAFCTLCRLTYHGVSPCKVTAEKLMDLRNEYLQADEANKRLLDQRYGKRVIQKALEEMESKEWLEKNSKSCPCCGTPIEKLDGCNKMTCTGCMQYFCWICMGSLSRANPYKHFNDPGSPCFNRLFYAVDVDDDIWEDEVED
UniProt Q96TC7: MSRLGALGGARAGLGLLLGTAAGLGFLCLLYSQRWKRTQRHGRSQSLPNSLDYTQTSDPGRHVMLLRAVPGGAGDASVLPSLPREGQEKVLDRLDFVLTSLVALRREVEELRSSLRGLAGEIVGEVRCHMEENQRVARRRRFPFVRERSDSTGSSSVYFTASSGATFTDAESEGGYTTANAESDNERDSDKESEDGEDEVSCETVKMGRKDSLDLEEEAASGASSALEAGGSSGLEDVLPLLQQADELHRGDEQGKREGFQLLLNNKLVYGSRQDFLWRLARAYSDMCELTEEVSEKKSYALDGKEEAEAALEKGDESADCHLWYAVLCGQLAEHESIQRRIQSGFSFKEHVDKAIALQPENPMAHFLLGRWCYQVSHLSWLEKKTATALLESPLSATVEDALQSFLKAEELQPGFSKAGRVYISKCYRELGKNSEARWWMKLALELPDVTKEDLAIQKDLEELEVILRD
UniProt Q05823: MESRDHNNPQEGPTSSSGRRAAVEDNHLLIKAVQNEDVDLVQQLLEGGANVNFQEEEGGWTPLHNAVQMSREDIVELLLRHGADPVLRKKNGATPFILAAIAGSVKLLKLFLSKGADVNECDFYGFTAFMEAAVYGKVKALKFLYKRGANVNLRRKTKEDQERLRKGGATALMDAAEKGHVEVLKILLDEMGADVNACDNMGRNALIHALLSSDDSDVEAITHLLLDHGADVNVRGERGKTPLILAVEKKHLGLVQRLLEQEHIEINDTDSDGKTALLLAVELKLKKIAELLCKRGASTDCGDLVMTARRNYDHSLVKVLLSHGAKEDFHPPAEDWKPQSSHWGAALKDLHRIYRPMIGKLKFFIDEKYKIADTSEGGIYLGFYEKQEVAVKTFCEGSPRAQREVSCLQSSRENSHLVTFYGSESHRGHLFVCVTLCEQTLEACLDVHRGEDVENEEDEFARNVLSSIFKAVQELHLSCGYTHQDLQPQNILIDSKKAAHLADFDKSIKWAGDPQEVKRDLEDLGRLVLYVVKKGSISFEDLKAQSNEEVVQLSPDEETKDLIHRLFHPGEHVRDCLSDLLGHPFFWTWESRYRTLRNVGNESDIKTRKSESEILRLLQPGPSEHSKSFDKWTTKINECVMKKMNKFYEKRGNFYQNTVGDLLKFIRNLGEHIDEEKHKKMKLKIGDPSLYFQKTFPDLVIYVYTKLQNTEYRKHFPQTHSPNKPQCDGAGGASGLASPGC
UniProt Q5TBB1: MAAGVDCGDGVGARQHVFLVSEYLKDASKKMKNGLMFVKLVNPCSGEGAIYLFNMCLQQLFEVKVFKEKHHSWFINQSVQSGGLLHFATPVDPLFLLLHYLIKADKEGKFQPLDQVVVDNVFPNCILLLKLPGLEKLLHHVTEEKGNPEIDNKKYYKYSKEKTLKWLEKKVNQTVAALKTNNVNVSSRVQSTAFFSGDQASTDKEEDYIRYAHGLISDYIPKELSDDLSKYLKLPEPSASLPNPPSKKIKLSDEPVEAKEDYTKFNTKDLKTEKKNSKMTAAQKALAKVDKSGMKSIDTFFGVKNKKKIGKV
UniProt Q15287: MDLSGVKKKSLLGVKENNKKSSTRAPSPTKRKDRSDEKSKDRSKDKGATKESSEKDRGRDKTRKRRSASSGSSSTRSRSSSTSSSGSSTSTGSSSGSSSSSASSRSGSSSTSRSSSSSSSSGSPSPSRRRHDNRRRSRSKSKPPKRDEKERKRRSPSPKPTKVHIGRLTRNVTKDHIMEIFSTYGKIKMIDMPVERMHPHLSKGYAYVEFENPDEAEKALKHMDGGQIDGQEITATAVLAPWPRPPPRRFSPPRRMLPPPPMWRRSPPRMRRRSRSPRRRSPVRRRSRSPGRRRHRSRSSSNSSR

How the values were obtained:
Experiment in all cases: log2 fold change, soluble protein after heating vs DMSO (PISA); higher = thermal stabilisation; K562 lysate, 10 uM; active = over 0.2 and 3.5 SD of the protein, either way, in both replicates (recomputed)
nilotinib = compound: Cc1cn(-c2cc(NC(=O)c3ccc(C)c(Nc4nccc(-c5cccnc5)n4)c3)cc(C(F)(F)F)c2)cn1 [nilotinib]
In short: (§1)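 A 30 min treatment with 10 μM compound was applied to crude K562 extract at 1 mg/mL protein in PBS pH 7.4 with 1 mM MgCl2. Heating for 3 min spanned 48°C-58°C, after which aliquots were pooled, adjusted to 0.5% NP-40 at 4°C and spun at 21,000xg for 90 min. TMTpro 16plex LC-MS/MS of the supernatant, with channel sums equalised, gave values recorded as log-two fold change in thermal stability against solvent controls, from duplicates.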

[1] = compound: Cc1nc(Nc2n[nH]c3c2CN(C(=O)N[C@H](CN(C)C)c2ccccc2)C3(C)C)c2sccc2n1
In short: as §1

dasatinib = compound: Cc1nc(Nc2ncc(C(=O)Nc3c(C)cccc3Cl)s2)cc(N2CCN(CCO)CC2)n1 [dasatinib]
In short: as §1

[2] = compound: Cc1ncc(-c2ccnc(Nc3ccc(S(C)(=O)=O)cc3)n2)n1C(C)C
In short: as §1

[3] = compound: Cn1cc(-c2ccc3c(c2)CCN3C(=O)Cc2cccc(C(F)(F)F)c2)c2c(N)ncnc21
In short: as §1

quisinostat = compound: Cn1cc(CNCC2CCN(c3ncc(C(=O)NO)cn3)CC2)c2ccccc21 [quisinostat]
In short: as §1

tipifarnib = compound: Cn1cncc1[C@@](N)(c1ccc(Cl)cc1)c1ccc2c(c1)c(-c1cccc(Cl)c1)cc(=O)n2C [tipifarnib]
In short: as §1

[4] = compound: NC(=O)Nc1cc(-c2cccc(F)c2)sc1C(=O)N[C@H]1CCCNC1
In short: as §1

[5] = compound: NC(=O)c1cnc(N[C@@H]2CCCC[C@@H]2N)nc1Nc1cccc(-n2nccn2)c1
In short: as §1

[6] = compound: NC1(c2ccc(-c3nc4ccn5c(=O)[nH]nc5c4cc3-c3ccccc3)cc2)CCC1
In short: as §1

[7] = compound: NCC(=O)Nc1ccc(-n2nc(C(F)(F)F)cc2-c2ccc3c(ccc4ccccc43)c2)cc1
In short: as §1

vorinostat = compound: O=C(CCCCCCC(=O)Nc1ccccc1)NO [vorinostat]
In short: as §1

silmitasertib = compound: O=C(O)c1ccc2c(c1)nc(Nc1cccc(Cl)c1)c1ccncc12 [silmitasertib]
In short: as §1

[8] = compound: O=C1NC(=O)C(c2cnc3ccccn23)=C1c1cn2c3c(cc(F)cc13)CN(C(=O)N1CCCCC1)CC2
In short: as §1

entospletinib = compound: c1cn2cc(-c3ccc4cn[nH]c4c3)nc(Nc3ccc(N4CCOCC4)cc3)c2n1 [entospletinib]
In short: as §1

Measured: log2 fold change

RPL35 (UniProt P42766)
inactive: nilotinib -0.011 | [1] 0.038 | dasatinib -0.03 | [2] -0.01 | [3] -0.026 | quisinostat -0.017 | tipifarnib -0.015 | [4] 0.037 | [5] -0.043 | [6] -0.038 | [7] 0.007 | vorinostat 0.111 | silmitasertib 0.035 | [8] 0.017 | entospletinib 0.048

RNASEH2A (UniProt O75792)
inactive: nilotinib 0.038 | [1] -0.03 | dasatinib -0.016 | [2] -0.027 | [3] 0.022 | quisinostat -0.002 | tipifarnib -0.03 | [4] -0.021 | [5] -0.001 | [6] -0.059 | [7] 0.029 | vorinostat 0.031 | silmitasertib -0.041 | [8] -0.029 | entospletinib 0.004

RPL17 isoform 3 (UniProt P18621)
inactive: nilotinib 0.053 | [1] 0 | dasatinib 0.011 | [2] -0.035 | [3] -0.019 | quisinostat 0.032 | tipifarnib 0.01 | [4] 0 | [5] 0 | [6] 0.009 | [7] -0.016 | vorinostat 0.127 | silmitasertib 0.003 | [8] 0.017 | entospletinib -0.01

RIPK1 (UniProt Q13546)
inactive: nilotinib -0.053 | [1] -0.014 | dasatinib 0.087 | quisinostat -0.074 | tipifarnib -0.064 | [4] 0.015 | [5] 0.01 | [6] -0.047 | [7] -0.021 | silmitasertib -0.037 | [8] -0.013 | entospletinib 0.011
active: [2] 0.248 | [3] 0.723 | vorinostat -0.292

RNF166 (UniProt Q96A37)
inactive: nilotinib 0.111 | [1] -0.199 | dasatinib 0.152 | [2] 0.058 | [3] -0.258 | quisinostat -0.04 | tipifarnib -0.023 | [4] -0.002 | [5] 0.035 | [6] -0.016 | [7] -0.024 | vorinostat 0.062 | silmitasertib 0.076 | [8] 0.048 | entospletinib -0.091

RNPEP (UniProt Q9H4A4)
inactive: nilotinib 0.01 | [1] 0.021 | dasatinib 0.051 | [2] -0.021 | [3] -0.012 | quisinostat -0.007 | tipifarnib 0 | [4] -0.008 | [5] 0.014 | [6] -0.011 | [7] -0.01 | vorinostat 0.069 | silmitasertib 0.005 | [8] -0.018 | entospletinib 0.02

RPAP1 (UniProt Q9BWH6)
inactive: nilotinib -0.002 | [1] 0.014 | dasatinib -0.027 | [2] -0.01 | [3] 0.032 | quisinostat -0.02 | tipifarnib -0.01 | [4] 0.013 | [5] 0.029 | [6] 0.004 | [7] 0.006 | silmitasertib 0 | [8] 0.015 | entospletinib -0.025
active: vorinostat -0.232

RNF20 (UniProt Q5VTR2)
inactive: nilotinib 0.019 | [1] -0.044 | dasatinib -0.016 | [2] 0.002 | [3] 0.005 | quisinostat -0.007 | tipifarnib -0.001 | [4] 0.011 | [5] 0.001 | [6] 0.023 | [7] 0.004 | vorinostat -0.055 | silmitasertib 0.005 | [8] 0.001 | entospletinib 0.06

RPL28 (UniProt P46779)
inactive: nilotinib -0.018 | [1] -0.011 | dasatinib 0.009 | [2] -0.015 | [3] -0.005 | quisinostat 0.08 | tipifarnib 0.002 | [4] -0.028 | [5] -0.011 | [6] -0.023 | [7] 0.012 | vorinostat 0.033 | silmitasertib 0.008 | [8] 0.043 | entospletinib 0.007

RNF14 (UniProt Q9UBS8)
inactive: nilotinib 0.01 | [1] -0.002 | dasatinib 0.016 | [2] -0.013 | [3] 0.012 | quisinostat -0.05 | tipifarnib 0.012 | [4] 0.01 | [5] 0.021 | [6] -0.035 | [7] 0 | vorinostat -0.027 | silmitasertib -0.013 | [8] -0.011 | entospletinib -0.03

RPL14 (UniProt P50914)
inactive: nilotinib -0.014 | [1] 0.015 | dasatinib 0.006 | [2] -0.001 | [3] -0.004 | quisinostat 0.143 | tipifarnib -0.021 | [4] -0.041 | [5] 0.034 | [6] 0.001 | [7] -0.001 | vorinostat -0.122 | silmitasertib 0.038 | [8] 0.086 | entospletinib 0.026

RPL30 (UniProt P62888)
inactive: nilotinib 0.014 | [1] -0.007 | dasatinib 0.01 | [2] -0.043 | [3] 0.006 | quisinostat -0.021 | tipifarnib 0.008 | [4] 0.005 | [5] -0.007 | [6] -0.003 | [7] 0.002 | vorinostat 0.067 | silmitasertib 0.028 | [8] -0.019 | entospletinib 0.017

RPL27A (UniProt P46776)
inactive: nilotinib -0.043 | [1] 0.025 | dasatinib 0.029 | [2] -0.007 | [3] 0.044 | quisinostat -0.026 | tipifarnib 0.011 | [4] 0.003 | [5] 0.018 | [6] -0.04 | [7] -0.002 | vorinostat -0.009 | silmitasertib 0.039 | [8] 0.021 | entospletinib 0.012

RMDN3 (UniProt Q96TC7)
inactive: nilotinib 0.017 | [1] 0.009 | dasatinib 0.012 | [2] 0.024 | [3] 0.03 | quisinostat -0.016 | tipifarnib -0.025 | [4] 0.024 | [5] -0.008 | [6] 0 | [7] -0.049 | vorinostat 0.024 | silmitasertib 0.048 | [8] 0.015 | entospletinib 0.07

RPL22 (UniProt P35268)
inactive: nilotinib 0.01 | [1] -0.056 | dasatinib -0.011 | [2] 0.037 | [3] -0.027 | quisinostat 0.074 | tipifarnib 0.038 | [4] 0.008 | [5] -0.012 | [6] 0.028 | [7] 0.05 | vorinostat 0.181 | silmitasertib 0.005 | [8] 0.1 | entospletinib 0.011

Reprinted at random: two records from the list
RNF14 (UniProt Q9UBS8)
inactive: nilotinib 0.01 | [1] -0.002 | dasatinib 0.016 | [2] -0.013 | [3] 0.012 | quisinostat -0.05 | tipifarnib 0.012 | [4] 0.01 | [5] 0.021 | [6] -0.035 | [7] 0 | vorinostat -0.027 | silmitasertib -0.013 | [8] -0.011 | entospletinib -0.03

RPAP1 (UniProt Q9BWH6)
inactive: nilotinib -0.002 | [1] 0.014 | dasatinib -0.027 | [2] -0.01 | [3] 0.032 | quisinostat -0.02 | tipifarnib -0.01 | [4] 0.013 | [5] 0.029 | [6] 0.004 | [7] 0.006 | silmitasertib 0 | [8] 0.015 | entospletinib -0.025
active: vorinostat -0.232

Next part

RNASEL (UniProt Q05823)
inactive: nilotinib -0.034 | [1] 0.035 | dasatinib -0.014 | [2] -0.013 | [3] 0.02 | quisinostat -0.06 | tipifarnib -0.016 | [4] 0.042 | [5] 0.026 | [6] -0.064 | [7] -0.005 | silmitasertib 0.055 | [8] -0.021 | entospletinib -0.023
active: vorinostat -0.298

RPL15 (UniProt P61313)
inactive: nilotinib 0 | [1] 0.009 | dasatinib 0.013 | [2] -0.037 | [3] 0.031 | quisinostat -0.011 | tipifarnib 0.002 | [4] -0.012 | [5] -0.02 | [6] 0.015 | [7] -0.02 | vorinostat 0.088 | silmitasertib 0.003 | [8] -0.015 | entospletinib 0.009

RPL10 (UniProt P27635)
inactive: nilotinib 0.021 | [1] -0.033 | dasatinib 0.039 | [2] 0.012 | [3] -0.003 | quisinostat 0.037 | tipifarnib 0.032 | [4] -0.02 | [5] 0.008 | [6] 0.003 | [7] -0.049 | vorinostat 0.062 | silmitasertib 0.013 | [8] 0.01 | entospletinib 0.003

RNASEH2B (UniProt Q5TBB1)
inactive: nilotinib 0.024 | [1] 0.007 | dasatinib -0.024 | [2] -0.001 | [3] -0.011 | quisinostat -0.059 | tipifarnib -0.009 | [4] 0.037 | [5] 0.004 | [6] -0.015 | [7] -0.016 | silmitasertib 0.054 | [8] -0.064 | entospletinib 0.011
active: vorinostat -0.377

RPL19 (UniProt P84098)
inactive: nilotinib 0.032 | [1] -0.019 | dasatinib 0.026 | [2] -0.012 | [3] 0.011 | quisinostat 0.098 | tipifarnib 0.029 | [4] -0.04 | [5] -0.023 | [6] -0.027 | [7] -0.041 | vorinostat 0.069 | silmitasertib 0.031 | [8] 0.036 | entospletinib 0.007

RNPS1 (UniProt Q15287)
inactive: nilotinib 0.025 | [1] -0.047 | dasatinib 0.044 | [2] -0.035 | [3] 0.034 | tipifarnib -0.056 | [4] 0.029 | [5] 0.018 | [6] -0.033 | [7] -0.014 | vorinostat 0.02 | silmitasertib -0.093 | [8] -0.012 | entospletinib 0.009
active: quisinostat 0.239
